Results as given in US8957228B2, “Macrolide compound having anticancer effect” (Tohoku University, priority 2010, dated 2015).

Test system: panel of 39 human cultured cancer cell lines
Assay: Drug sensitivity test, whole panel: comparison with known compounds (finger print correlation)
Format: cell-based
Settings: correlation with exiguolide finger print over the panel

Point of comparison: `COc1cccc2c1C(=O)c1c(O)c3c(c(O)c1C2=O)C[C@@](O)(C(=O)CO)C[C@@H]3O[C@H]1C[C@H](N)[C@H](O[C@@H]2CCCCO2)[C@H](C)O1` [Pirarubicin], “r = Correlation coefficient (correlation of exiguolide sensitivity pattern with known drug)” value 0.561. Against it:
- CO[C@@]12[C@H](COC(N)=O)C3=C(C(=O)C(C)=C(N)C3=O)N1C[C@@H]1N[C@@H]12 [Mitomycin C] — lower, 0.556
- CC(=O)[C@]1(N)Cc2c(O)c3c(c(O)c2[C@@H](O[C@H]2C[C@H](O)[C@H](O)CO2)C1)C(=O)c1ccccc1C3=O [SM-5887] — lower, 0.537

No dose or concentration is given here for some results.
